Where “and” joins values, the source holds several entries; their conditions need not be identical. Equal entries are not always repeated. This continues a long series; more values of the same kind are listed elsewhere.
Test system: RPE1 cells
Experiment: Cell growth assay (IncuCyte confluence over 72 h)
Type: cell-based
Conditions: listed as 8F20
Summary of the method: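 Phase confluence (% area covered by cells) imaged every 2 h for 72 h after compound addition; cells in DMEM/10% FBS, seeded 24 h before treatment. Controls were 0.1% DMSO, 250 nM Torin1 and 200 ng/mL Bafilomycin (final). Each point averages three wells.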

**Q.** How did the RPE1 cell growth (100 nM, 0 h) turn out when `Cc1ccc(C(=O)N(CCCN)[C@@H](c2nc3cc(Cl)ccc3c(=O)n2Cc2ccccc2)C(C)C)cc1` [compound 3, (R)-N-(3-aminopropyl)-N-(1-(3-benzyl-7-chloro-4-oxo-3,4-dihydroquinazolin-2-yl)−2-methylpropyl)−4-methylbenzamide] was run?
**A.** 19 and 11 and 16

**Q.** What about the RPE1 cell growth (100 nM, 2 h) of the same compound?
**A.** 21 and 12 and 18

**Q.** What about the RPE1 cell growth (100 nM, 4 h) of the same compound?
**A.** 20 and 11 and 19

**Q.** And the RPE1 cell growth (100 nM, 6 h)?
**A.** 19 and 10 and 16

**Q.** And the RPE1 cell growth (100 nM, 8 h)?
**A.** 18 and 9 and 16

**Q.** And the RPE1 cell growth (100 nM, 10 h)?
**A.** 17 and 9 and 15

**Q.** And the RPE1 cell growth (100 nM, 12 h)?
**A.** 16 and 8 and 14

**Q.** And the RPE1 cell growth (100 nM, 14 h)?
**A.** 15 and 8 and 14

**Q.** What about the RPE1 cell growth (100 nM, 16 h) of the same compound?
**A.** 14 and 7 and 13

**Q.** What about the RPE1 cell growth (500 nM, 0 h) of the same compound?
**A.** 22 and 18 and 20

**Q.** What about the RPE1 cell growth (500 nM, 2 h) of the same compound?
**A.** 25 and 18 and 22

**Q.** And the RPE1 cell growth (500 nM, 4 h)?
**A.** 24 and 17 and 23

**Q.** What about the RPE1 cell growth (500 nM, 6 h) of the same compound?
**A.** 23 and 16 and 21

**Q.** What about the RPE1 cell growth (500 nM, 8 h) of the same compound?
**A.** 22 and 14 and 21

**Q.** What about the RPE1 cell growth (500 nM, 10 h) of the same compound?
**A.** 20 and 14

**Q.** And the RPE1 cell growth (500 nM, 12 h)?
**A.** 20 and 13 and 18

**Q.** What about the RPE1 cell growth (500 nM, 14 h) of the same compound?
**A.** 18 and 11 and 17

**Q.** What about the RPE1 cell growth (500 nM, 16 h) of the same compound?
**A.** 18 and 11 and 16

**Q.** And the RPE1 cell growth (500 nM, 18 h)?
**A.** 17 and 10 and 14

**Q.** What about the RPE1 cell growth (500 nM, 20 h) of the same compound?
**A.** 15 and 9 and 14

**Q.** And the RPE1 cell growth (500 nM, 22 h)?
**A.** 17 and 9 and 13

**Q.** And the RPE1 cell growth (500 nM, 26 h)?
**A.** 18 and 12 and 13

**Q.** And the RPE1 cell growth (500 nM, 28 h)?
**A.** 19 and 11 and 14

**Q.** What about the RPE1 cell growth (500 nM, 30 h) of the same compound?
**A.** 13 and 12 and 14

**Q.** What about the RPE1 cell growth (500 nM, 32 h) of the same compound?
**A.** 22 and 12 and 15

**Q.** And the RPE1 cell growth (500 nM, 60 h)?
**A.** 37 and 19 and 30

**Q.** What about the RPE1 cell growth (500 nM, 62 h) of the same compound?
**A.** 37 and 19 and 32

**Q.** And the RPE1 cell growth (500 nM, 64 h)?
**A.** 39 and 20 and 32

**Q.** What about the RPE1 cell growth (500 nM, 68 h) of the same compound?
**A.** 38 and 19 and 35

**Q.** And the RPE1 cell growth (1 uM, 0 h)?
**A.** 18 and 17 and 19

**Q.** What about the RPE1 cell growth (1 uM, 2 h) of the same compound?
**A.** 20 and 21 and 19

**Q.** What about the RPE1 cell growth (1 uM, 4 h) of the same compound?
**A.** 21 and 19

**Q.** What about the RPE1 cell growth (1 uM, 6 h) of the same compound?
**A.** 21 and 20 and 17

**Q.** What about the RPE1 cell growth (1 uM, 8 h) of the same compound?
**A.** 20 and 21 and 16

**Q.** And the RPE1 cell growth (1 uM, 10 h)?
**A.** 18 and 19 and 14

**Q.** And the RPE1 cell growth (1 uM, 12 h)?
**A.** 17 and 18 and 12

**Q.** And the RPE1 cell growth (1 uM, 14 h)?
**A.** 16 and 17 and 12

**Q.** What about the RPE1 cell growth (1 uM, 16 h) of the same compound?
**A.** 15 and 17 and 11

**Q.** And the RPE1 cell growth (1 uM, 18 h)?
**A.** 14 and 17 and 11

**Q.** What about the RPE1 cell growth (1 uM, 20 h) of the same compound?
**A.** 14 and 15 and 10

**Q.** And the RPE1 cell growth (1 uM, 22 h)?
**A.** 13 and 19 and 11

**Q.** And the RPE1 cell growth (1 uM, 24 h)?
**A.** 13 and 21 and 11

**Q.** And the RPE1 cell growth (1 uM, 26 h)?
**A.** 13 and 19 and 10

**Q.** And the RPE1 cell growth (1 uM, 28 h)?
**A.** 13 and 22 and 11

**Q.** And the RPE1 cell growth (1 uM, 30 h)?
**A.** 13 and 21 and 12

**Q.** What about the RPE1 cell growth (1 uM, 32 h) of the same compound?
**A.** 14 and 24 and 13

**Q.** What about the RPE1 cell growth (1 uM, 58 h) of the same compound?
**A.** 36 and 21

**Q.** And the RPE1 cell growth (1 uM, 60 h)?
**A.** 32 and 33 and 21

**Q.** What about the RPE1 cell growth (1 uM, 62 h) of the same compound?
**A.** 31 and 35 and 21

**Q.** And the RPE1 cell growth (1 uM, 64 h)?
**A.** 32 and 38 and 22

**Q.** What about the RPE1 cell growth (1 uM, 66 h) of the same compound?
**A.** 33 and 37 and 21

**Q.** What about the RPE1 cell growth (1 uM, 68 h) of the same compound?
**A.** 33 and 36 and 22

**Q.** And the RPE1 cell growth (1 uM, 70 h)?
**A.** 34 and 40 and 20

**Q.** And the RPE1 cell growth (1 uM, 72 h)?
**A.** 37 and 41 and 21

**Q.** And the RPE1 cell growth (3 uM, 0 h)?
**A.** 15 and 18 and 17

**Q.** What about the RPE1 cell growth (3 uM, 2 h) of the same compound?
**A.** 22 and 20

**Q.** What about the RPE1 cell growth (3 uM, 4 h) of the same compound?
**A.** 21 and 19 and 22

**Q.** What about the RPE1 cell growth (3 uM, 6 h) of the same compound?
**A.** 22 and 17

**Q.** What about the RPE1 cell growth (3 uM, 8 h) of the same compound?
**A.** 22 and 16 and 20

**Q.** What about the RPE1 cell growth (3 uM, 10 h) of the same compound?
**A.** 21 and 15 and 20

**Q.** What about the RPE1 cell growth (3 uM, 12 h) of the same compound?
**A.** 21 and 14 and 19

**Q.** And the RPE1 cell growth (3 uM, 14 h)?
**A.** 21 and 14 and 17

**Q.** And the RPE1 cell growth (3 uM, 16 h)?
**A.** 19 and 13 and 17

**Q.** And the RPE1 cell growth (3 uM, 18 h)?
**A.** 20 and 11 and 16

**Q.** And the RPE1 cell growth (3 uM, 20 h)?
**A.** 18 and 11 and 16

**Q.** What about the RPE1 cell growth (3 uM, 22 h) of the same compound?
**A.** 20 and 12 and 15

**Q.** And the RPE1 cell growth (3 uM, 24 h)?
**A.** 21 and 12 and 14

**Q.** And the RPE1 cell growth (3 uM, 26 h)?
**A.** 21 and 13 and 15

**Q.** What about the RPE1 cell growth (3 uM, 28 h) of the same compound?
**A.** 23 and 14

**Q.** What about the RPE1 cell growth (3 uM, 30 h) of the same compound?
**A.** 24 and 15 and 14

**Q.** What about the RPE1 cell growth (3 uM, 32 h) of the same compound?
**A.** 25 and 15 and 16

**Q.** What about the RPE1 cell growth (3 uM, 58 h) of the same compound?
**A.** 35 and 19 and 27

**Q.** And the RPE1 cell growth (3 uM, 60 h)?
**A.** 36 and 20 and 26

**Q.** And the RPE1 cell growth (3 uM, 62 h)?
**A.** 37 and 19 and 27

**Q.** And the RPE1 cell growth (3 uM, 64 h)?
**A.** 37 and 20 and 27

**Q.** What about the RPE1 cell growth (3 uM, 66 h) of the same compound?
**A.** 39 and 22 and 27

**Q.** And the RPE1 cell growth (3 uM, 68 h)?
**A.** 38 and 21 and 28

**Q.** What about the RPE1 cell growth (3 uM, 70 h) of the same compound?
**A.** 40 and 20 and 28

**Q.** What about the RPE1 cell growth (5 uM, 0 h) of the same compound?
**A.** 14 and 17

**Q.** And the RPE1 cell growth (5 uM, 2 h)?
**A.** 21 and 19

**Q.** What about the RPE1 cell growth (5 uM, 4 h) of the same compound?
**A.** 19 and 20

**Q.** What about the RPE1 cell growth (5 uM, 6 h) of the same compound?
**A.** 23 and 17 and 20

**Q.** And the RPE1 cell growth (5 uM, 8 h)?
**A.** 23 and 18 and 20

**Q.** What about the RPE1 cell growth (5 uM, 10 h) of the same compound?
**A.** 22 and 16 and 19

**Q.** What about the RPE1 cell growth (5 uM, 12 h) of the same compound?
**A.** 24 and 16 and 19

**Q.** What about the RPE1 cell growth (5 uM, 14 h) of the same compound?
**A.** 26 and 14 and 19

**Q.** What about the RPE1 cell growth (5 uM, 16 h) of the same compound?
**A.** 26 and 14 and 19

**Q.** What about the RPE1 cell growth (5 uM, 20 h) of the same compound?
**A.** 28 and 14 and 19

**Q.** And the RPE1 cell growth (10 uM, 0 h)?
**A.** 14 and 18

**Q.** What about the RPE1 cell growth (10 uM, 2 h) of the same compound?
**A.** 21 and 17 and 20

**Q.** What about the RPE1 cell growth (10 uM, 4 h) of the same compound?
**A.** 22 and 16

**Q.** What about the RPE1 cell growth (10 uM, 6 h) of the same compound?
**A.** 22 and 16

**Q.** And the RPE1 cell growth (10 uM, 8 h)?
**A.** 24 and 18 and 22

**Q.** And the RPE1 cell growth (10 uM, 10 h)?
**A.** 23 and 17

**Q.** And the RPE1 cell growth (10 uM, 12 h)?
**A.** 29 and 19 and 23

**Q.** And the RPE1 cell growth (10 uM, 14 h)?
**A.** 31 and 16 and 23

**Q.** And the RPE1 cell growth (10 uM, 16 h)?
**A.** 32 and 17 and 23

**Q.** And the RPE1 cell growth (10 uM, 20 h)?
**A.** 32 and 17 and 26
